Results are given in words; binding and its absence hold for the method and conditions named. For some assays here: Binding seen in cells or lysates may run through a third protein. Some results given as binding are weak or reduced against the parent protein; the word gives no strength. Sequences can lack the tags named with a protein.
Legend:
[1] = molecular target: T1, FLAG-Cry1 (human) (UniProt Q16526); test: co-IP
T1 sequence: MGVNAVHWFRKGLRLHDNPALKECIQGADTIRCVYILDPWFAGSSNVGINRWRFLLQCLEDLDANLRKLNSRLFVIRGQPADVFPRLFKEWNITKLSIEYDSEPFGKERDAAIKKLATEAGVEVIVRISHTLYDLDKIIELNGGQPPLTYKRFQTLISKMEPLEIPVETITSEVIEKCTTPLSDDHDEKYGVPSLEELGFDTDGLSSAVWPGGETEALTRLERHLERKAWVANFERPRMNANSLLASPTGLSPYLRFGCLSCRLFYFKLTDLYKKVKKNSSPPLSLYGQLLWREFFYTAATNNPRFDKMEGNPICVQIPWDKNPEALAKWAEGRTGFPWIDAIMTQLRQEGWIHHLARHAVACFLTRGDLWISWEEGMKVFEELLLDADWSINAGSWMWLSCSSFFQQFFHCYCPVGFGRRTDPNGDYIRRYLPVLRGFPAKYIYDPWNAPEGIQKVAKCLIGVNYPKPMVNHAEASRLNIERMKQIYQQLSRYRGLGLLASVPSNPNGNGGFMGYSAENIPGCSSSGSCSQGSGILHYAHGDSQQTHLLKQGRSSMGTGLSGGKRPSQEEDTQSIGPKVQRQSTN

By UniProt entry, the sequences of proteins in these tests, tags left out.
UniProt Q9NRC8: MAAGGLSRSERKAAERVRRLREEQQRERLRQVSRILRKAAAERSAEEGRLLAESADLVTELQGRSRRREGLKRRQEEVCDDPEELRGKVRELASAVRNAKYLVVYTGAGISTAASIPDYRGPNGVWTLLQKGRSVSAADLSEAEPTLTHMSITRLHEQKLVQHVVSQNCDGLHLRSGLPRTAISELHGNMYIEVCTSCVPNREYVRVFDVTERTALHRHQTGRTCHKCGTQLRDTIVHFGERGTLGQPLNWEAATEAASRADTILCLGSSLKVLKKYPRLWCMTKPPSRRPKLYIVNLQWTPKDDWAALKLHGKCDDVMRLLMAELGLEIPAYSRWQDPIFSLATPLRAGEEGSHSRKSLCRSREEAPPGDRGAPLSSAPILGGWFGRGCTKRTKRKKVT

[2] = molecular target: GST-Sirt7 (human) (UniProt Q9NRC8); test: pull-down

In the case of HA-Sirt7 (from UniProt Q9NRC8 1-400), the binding [1] is reported as “binds”.

B1: His-Cry1 (protein, UniProt Q16526 1-586)
chain: MGVNAVHWFRKGLRLHDNPALKECIQGADTIRCVYILDPWFAGSSNVGINRWRFLLQCLEDLDANLRKLNSRLFVIRGQPADVFPRLFKEWNITKLSIEYDSEPFGKERDAAIKKLATEAGVEVIVRISHTLYDLDKIIELNGGQPPLTYKRFQTLISKMEPLEIPVETITSEVIEKCTTPLSDDHDEKYGVPSLEELGFDTDGLSSAVWPGGETEALTRLERHLERKAWVANFERPRMNANSLLASPTGLSPYLRFGCLSCRLFYFKLTDLYKKVKKNSSPPLSLYGQLLWREFFYTAATNNPRFDKMEGNPICVQIPWDKNPEALAKWAEGRTGFPWIDAIMTQLRQEGWIHHLARHAVACFLTRGDLWISWEEGMKVFEELLLDADWSINAGSWMWLSCSSFFQQFFHCYCPVGFGRRTDPNGDYIRRYLPVLRGFPAKYIYDPWNAPEGIQKVAKCLIGVNYPKPMVNHAEASRLNIERMKQIYQQLSRYRGLGLLASVPSNPNGNGGFMGYSAENIPGCSSSGSCSQGSGILHYAHGDSQQTHLLKQGRSSMGTGLSGGKRPSQEEDTQSIGPKVQRQSTN
For B1, the binding [2] was “binds”.
